Results: patent publication US20200340060A1, “COMPOSITIONS AND METHODS FOR IDENTIFYING AND TREATING LIVER DISEASES AND MONITORING TREATMENT OUTCOMES” (Gilead Sciences, Inc., priority 2017, published 2020)

B1: Proteinase-3 (protein, UniProt P24158 28-248, looked up)
Myeloblastin: IVGGHEAQPHSRPYMASLQMRGNPGSHFCGGTLIHPSFVLTAAHCLRDIPQRLVNVVLGAHNVRTQEPTQQHFSVAQVFLNNYDAENKLNDVLLIQLSSPANLSASVATVQLPQQDQPVPHGTQCLAMGWGRVGAHDPPAQVLQELNVTVVTFFCRPHNICTFVPRRKAGICFGDSGGPLICDGIIQGIDSFVIWGCATRLFPDFFTRVALYVDWIRSTLR
B2: SP-D (protein, UniProt P35247 21-375, looked up)
Pulmonary …: AEMKTYSHRTMPSACTLVMCSSVESGLPGRDGRDGREGPRGEKGDPGLPGAAGQAGMPGQAGPVGPKGDNGSVGEPGPKGDTGPSGPPGPPGVPGPAGREGPLGKQGNIGPQGKPGPKGEAGPKGEVGAPGMQGSAGARGLAGPKGERGVPGERGVPGNTGAAGSAGAMGPQGSPGARGPPGLKGDKGIPGDKGAKGESGLPDVASLRQQVEALQGQVQHLQAAFSQYKKVELFPNGQSVGEKIFKTAGFVKPFTEAQLLCTQAGGQLASPRSAAENAALQQLVVAKNEAAFLSMTDSKTEGKFTYPTGESLVYSNWAPGEPNDDGGSEDCVEIFTNGKWNDRACGEKRLVVCEF
B3: SLIK1 (protein, UniProt Q96PX8 18-696, looked up)
SLIT and NTRK-like protein 1: NVTGDVCKEKICSCNEIEGDLHVDCEKKGFTSLQRFTAPTSQFYHLFLHGNSLTRLFPNEFANFYNAVSLHMENNGLHEIVPGAFLGLQLVKRLHINNNKIKSFRKQTFLGLDDLEYLQADFNLLRDIDPGAFQDLNKLEVLILNDNLISTLPANVFQYVPITHLDLRGNRLKTLPYEEVLEQIPGIAEILLEDNPWDCTCDLLSLKEWLENIPKNALIGRVVCEAPTRLQGKDLNETTEQDLCPLKNRVDSSLPAPPAQEETFAPGPLPTPFKTNGQEDHATPGSAPNGGTKIPGNWQIKIRPTAAIATGSSRNKPLANSLPCPGGCSCDHIPGSGLKMNCNNRNVSSLADLKPKLSNVQELFLRDNKIHSIRKSHFVDYKNLILLDLGNNNIATVENNTFKNLLDLRWLYMDSNYLDTLSREKFAGLQNLEYLNVEYNAIQLILPGTFNAMPKLRILILNNNLLRSLPVDVFAGVSLSKLSLHNNYFMYLPVAGVLDQLTSIIQIDLHGNPWECSCTIVPFKQWAERLGSEVLMSDLKCETPVNFFRKDFMLLSNDEICPQLYARISPTLTSHSKNSTGLAETGTHSNSYLDTSRVSISVLVPGLLLVFVTSAFTVVGMLVFILRNRKRSKRRDANSSASEINSLQTVCDSSYWHNGPYNADGAHRVYDCGSHSLSD
B4: S100A7 (protein, UniProt P31151 2-101, looked up)
Protein S100-A7: SNTQAERSIIGMIDMFHKYTRRDDKIEKPSLLTMMKENFPNFLSACDKKGTNYLADVFEKKDKNEDKKIDFSEFLSLLGDIATDYHKQSHGAAPCSGGSQ
B5: annexin I (protein, UniProt P04083 2-346, looked up)
Annexin A1: AMVSEFLKQAWFIENEEQEYVQTVKSSKGGPGSAVSPYPTFNPSSDVAALHKAIMVKGVDEATIIDILTKRNNAQRQQIKAAYLQETGKPLDETLKKALTGHLEEVVLALLKTPAQFDADELRAAMKGLGTDEDTLIEILASRTNKEIRDINRVYREELKRDLAKDITSDTSGDFRNALLSLAKGDRSEDFGVNEDLADSDARALYEAGERRKGTDVNVFNTILTTRSYPQLRRVFQKYTKYSKHDMNKVLDLELKGDIEKCLTAIVKCATSKPAFFAEKLHQAMKGVGTRHKALIRIMVSRSEIDMNDIKAFYQKMYGISLCQAILDETKGDYEKILVALCGGN
B6: ARGI1 (protein, UniProt P05089 1-322, looked up)
Arginase-1: MSAKSRTIGIIGAPFSKGQPRGGVEEGPTVLRKAGLLEKLKEQECDVKDYGDLPFADIPNDSPFQIVKNPRSVGKASEQLAGKVAEVKKNGRISLVLGGDHSLAIGSISGHARVHPDLGVIWVDAHTDINTPLTTTSGNLHGQPVSFLLKELKGKIPDVPGFSWVTPCISAKDIVYIGLRDVDPGEHYILKTLGIKYFSMTEVDRLGIGKVMEETLSYLLGRKKRPIHLSFDVDGLDPSFTPATGTPVVGGLTYREGLYITEEIYKTGLLSGLDIMEVNPSLGKTPEEVTRTVNTAVAITLACFGLAREGNHKPIDYLNPPK
B7: JAM-B (protein, UniProt P57087 29-298, looked up)
Junctional adhesion molecule B: FSAPKDQQVVTAVEYQEAILACKTPKKTVSSRLEWKKLGRSVSFVYYQQTLQGDFKNRAEMIDFNIRIKNVTRSDAGKYRCEVSAPSEQGQNLEEDTVTLEVLVAPAVPSCEVPSSALSGTVVELRCQDKEGNPAPEYTWFKDGIRLLENPRLGSQSTNSSYTMNTKTGTLQFNTVSKLDTGEYSCEARNSVGYRRCPGKRMQVDDLNISGIIAAVVVVALVISVCGLGVCYAQRKGYFSKETSFQKSNSSSKATTMSENDFKHTKSFII
B8: PKB beta (protein, UniProt P31751 1-481, looked up)
RAC-beta …: MNEVSVIKEGWLHKRGEYIKTWRPRYFLLKSDGSFIGYKERPEAPDQTLPPLNNFSVAECQLMKTERPRPNTFVIRCLQWTTVIERTFHVDSPDEREEWMRAIQMVANSLKQRAPGEDPMDYKCGSPSDSSTTEEMEVAVSKARAKVTMNDFDYLKLLGKGTFGKVILVREKATGRYYAMKILRKEVIIAKDEVAHTVTESRVLQNTRHPFLTALKYAFQTHDRLCFVMEYANGGELFFHLSRERVFTEERARFYGAEIVSALEYLHSRDVVYRDIKLENLMLDKDGHIKITDFGLCKEGISDGATMKTFCGTPEYLAPEVLEDNDYGRAVDWWGLGVVMYEMMCGRLPFYNQDHERLFELILMEEIRFPRTLSPEAKSLLAGLLKKDPKQRLGGGPSDAKEVMEHRFFLSINWQDVVQKKLLPPFKPQVTSEVDTRYFDDEFTAQSITITPPDRYDSLGLLELDQRTHFPQFSYSASIRE
B9: BPI (protein, UniProt P17213 32-487, looked up)
Bactericidal …: VNPGVVVRISQKGLDYASQQGTAALQKELKRIKIPDYSDSFKIKHLGKGHYSFYSMDIREFQLPSSQISMVPNVGLKFSISNANIKISGKWKAQKRFLKMSGNFDLSIEGMSISADLKLGSNPTSGKPTITCSSCSSHINSVHVHISKSKVGWLIQLFHKKIESALRNKMNSQVCEKVTNSVSSELQPYFQTLPVMTKIDSVAGINYGLVAPPATTAETLDVQMKGEFYSENHHNPPPFAPPVMEFPAAHDRMVYLGLSDYFFNTAGLVYQEAGVLKMTLRDDMIPKESKFRLTTKFFGTFLPEVAKKFPNMKIQIHVSASTPPHLSVQPTGLTFYPAVDVQAFAVLPNSSLASLFLIGMHTTGSMEVSAESNRLVGELKLDRLLLELKHSNIGPFPVELLQDIMNYIVPILVLPRVNEKLQKGFPLPTPARVQLYNVVLQPHQNFLLFGADVVYK

Assay: SOMAscan serum proteomics in NASH subjects treated with selonsertib/simtuzumab, baseline and week 24
Design: species or system human
Settings: serum protein marker level; hepatic ballooning improvers; week 24 vs baseline

Compared with B1, B2 is lower in “Median percent CHG at W24 in improver” value: −26.62% for the first, −30.86% for the second.

Compared with B3, B4 is lower in “Median percent CHG at W24 in improver” value: 5.51% for the first, −1.99% for the second.

First: B5
Second: B6
The “Median percent CHG at W24 in improver” value of the first is higher: −12.32% for the first, −19.27% for the second.

First: B7
Second: B8
The “Median percent CHG at W24 in improver” value of the first is higher: 6.48% for the first, −7.77% for the second.

In the case of B9, the “Median percent CHG at W24 in improver” value is reported as −39.76%.

Same assay, conditions: serum protein marker level; hepatic ballooning non-improvers; week 24 vs baseline

First: B1
Second: B2
The “Median percent CHG at W24 in Non-improver” value of the first is lower: −14.585% for the first, −7.39% for the second.

First: B3
Second: B4
The “Median percent CHG at W24 in Non-improver” value of the first is lower: −0.975% for the first, 1.06% for the second.

Going from B5 to B6, the “Median percent CHG at W24 in Non-improver” value falls from 2.89% to −6.98%.

Going from B7 to B8, the “Median percent CHG at W24 in Non-improver” value rises from −0.86% to −0.495%.

In the case of B9, the “Median percent CHG at W24 in Non-improver” value is reported as −20.905%.
